PubChem BioAssay AID1259424 – University of Nebraska Medical Center – 2018
Aim: 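Rank knockdowns across the genome by resemblance to the KSR1 depletion profile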 (primary screen). Cell system: human HCT116 colon cancer cells. Reagents: siRNA pool against human genes, 50 nM. Read-out: 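Six signature mRNAs by branched-DNA multiplex assay, scaled to two housekeeping genes and non-targeting median, log2; matched to mean KSR1 knockdown profile by Pearson correlation and euclidean distance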. Scale: mean correlation with KSR1 profile: higher = expression change more like KSR1 knockdown.
In all, the deposit lists about 14,000 reagents; this is a random part of them. 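Higher correlation or smaller distance means closer resemblance to KSR1 loss; control wells, including KSR1 knockdowns, recur on many plates.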 The numbers tell different reagents against one gene apart. Further read-outs or replicates are left out here. The record does not give: the time to read-out.

mean correlation with KSR1 profile, by gene symbol and reagent
GALR3 (GeneID 8484): #1 0.647
SUMF2 (GeneID 25870): #1 0.561
CD180 (GeneID 4064): #1 -0.119
CLASRP (GeneID 11129): #1 0.174
GNGT2 (GeneID 2793): #1 -0.462
HACD2 (GeneID 201562): #1 -0.546
BABAM1 (GeneID 29086): #1 0.217
ANKRD50 (GeneID 57182): #1 -0.628
DELEC1 (GeneID 50514): #1 -0.497
PRMT8 (GeneID 56341): #1 0.156
RTN3 (GeneID 10313): #1 -0.471
OTUB1 (GeneID 55611): #1 0.367
TMEM40 (GeneID 55287): #1 -0.577
NCOA7 (GeneID 135112): #1 -0.331
PPP3CA (GeneID 5530): #1 -0.633
SALL3 (GeneID 27164): #1 0.364
KLK1 (GeneID 3816): #1 -0.156
GRM7 (GeneID 2917): #1 0.279
NME4 (GeneID 4833): #1 -0.647
PDF (GeneID 64146): #1 -0.507
RAB8A (GeneID 4218): #1 -0.472
RNF31 (GeneID 55072): #1 -0.551
CALCA (GeneID 796): #1 0.467
SRBD1 (GeneID 55133): #1 -0.592
ZFHX3 (GeneID 463): #1 0.259
EHD2 (GeneID 30846): #1 -0.318
ACKR5 (GeneID 11318): #1 0.151
GJC2 (GeneID 57165): #1 -0.226
UCK2 (GeneID 7371): #1 -0.0583
STX17 (GeneID 55014): #1 0.152
ZSWIM4 (GeneID 65249): #1 -0.365
TM9SF2 (GeneID 9375): #1 0.173
NCAM1 (GeneID 4684): #1 -0.0524
TWNK (GeneID 56652): #1 0.705
IGSF9B (GeneID 22997): #1 -0.174
PNP (GeneID 4860): #1 0.692
CTSW (GeneID 1521): #1 0.107
HASPIN (GeneID 83903): #1 0.336
AIM2 (GeneID 9447): #1 0.258
SLC7A5 (GeneID 8140): #1 -0.476
NLK (GeneID 51701): #1 0.609
INSIG1 (GeneID 3638): #1 -0.124
ZDHHC3 (GeneID 51304): #1 -0.579; #2 0.455
NFATC1 (GeneID 4772): #1 -0.972
KIF14 (GeneID 9928): #1 -0.341
CPNE3 (GeneID 8895): #1 0.22
CX3CL1 (GeneID 6376): #1 0.557
PLPP5 (GeneID 84513): #1 -0.34
MEP1B (GeneID 4225): #1 -0.385
